Assay results from publication PMC6468817.
Results are given in words; binding and its absence hold for the method and conditions named. Binding seen in cells or lysates may run through a third protein. Some entries that bind do so weakly or less than the wild type. Tags and fused reporters may be left off the sequences shown. Blank lines part the entries; values can stand above or below the molecule they belong to.

Sequences of proteins named here, by UniProt entry; tags and fusion partners are left off.
UniProt P18850: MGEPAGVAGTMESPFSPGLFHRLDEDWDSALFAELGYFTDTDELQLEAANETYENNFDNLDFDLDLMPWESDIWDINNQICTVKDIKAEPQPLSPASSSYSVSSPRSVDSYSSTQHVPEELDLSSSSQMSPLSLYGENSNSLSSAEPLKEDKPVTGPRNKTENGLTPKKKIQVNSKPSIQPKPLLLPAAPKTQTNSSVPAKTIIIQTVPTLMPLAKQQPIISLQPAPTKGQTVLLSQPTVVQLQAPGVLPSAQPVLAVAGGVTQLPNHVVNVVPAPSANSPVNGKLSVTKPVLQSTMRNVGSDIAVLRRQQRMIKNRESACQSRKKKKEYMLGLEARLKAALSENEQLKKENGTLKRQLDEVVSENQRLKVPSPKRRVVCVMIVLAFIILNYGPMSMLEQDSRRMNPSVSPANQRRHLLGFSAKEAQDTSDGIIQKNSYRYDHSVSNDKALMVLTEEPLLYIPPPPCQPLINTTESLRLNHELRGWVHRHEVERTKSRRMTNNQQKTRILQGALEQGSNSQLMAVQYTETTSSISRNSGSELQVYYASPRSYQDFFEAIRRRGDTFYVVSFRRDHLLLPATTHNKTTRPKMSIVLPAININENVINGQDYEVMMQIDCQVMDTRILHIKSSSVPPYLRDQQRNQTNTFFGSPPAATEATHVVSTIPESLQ
UniProt Q96G97: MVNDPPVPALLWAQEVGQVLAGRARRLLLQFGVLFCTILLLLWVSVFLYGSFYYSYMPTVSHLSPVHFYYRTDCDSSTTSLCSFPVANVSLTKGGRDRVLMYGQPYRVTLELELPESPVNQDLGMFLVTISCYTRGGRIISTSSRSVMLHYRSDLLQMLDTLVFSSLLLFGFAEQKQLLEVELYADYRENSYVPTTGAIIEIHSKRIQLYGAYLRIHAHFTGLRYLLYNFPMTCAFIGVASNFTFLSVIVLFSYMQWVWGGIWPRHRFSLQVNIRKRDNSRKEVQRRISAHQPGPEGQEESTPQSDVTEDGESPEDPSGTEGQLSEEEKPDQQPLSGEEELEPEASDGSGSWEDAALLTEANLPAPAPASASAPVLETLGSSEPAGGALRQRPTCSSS

What was measured:
[1] = biological target: T1, Flag-tagged promethin (human) (UniProt Q96B96); experiment: co-IP; Flag-promethin and seipin-Myc co-expressed in MCF7 cells, 200 µM oleic acid for 48 h; lysis in 25 mM Tris HCl pH 7.5, 150 mM NaCl, 0.5 mM EDTA, 1% NP-40; anti-FLAG beads 2 h at 4 °C; elution with 0.2 M glycine pH 2.5; Western blot
T1 sequence: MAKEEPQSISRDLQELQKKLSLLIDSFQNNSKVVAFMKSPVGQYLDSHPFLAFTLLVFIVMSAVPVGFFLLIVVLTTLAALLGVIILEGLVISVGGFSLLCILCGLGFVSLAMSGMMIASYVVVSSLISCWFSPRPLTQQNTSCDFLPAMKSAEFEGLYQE

[2] = biological target: T1, Flag-tagged promethin (human); experiment: co-IP; FLAG-tagged promethin and myc-tagged seipin forms co-expressed in HEK293 cells; anti-FLAG agarose beads; elution with 3xFLAG peptide in TBS; Western blot
[3] = biological target: T2, human promethin-GFP expressed in yeast (human) (UniProt Q96B96); experiment: co-IP; human promethin-GFP expressed in yeast; lysis in 50 mM Tris HCl pH 7, 150 mM NaCl, 1% digitonin; GFP-trap 1 h at 4 °C; elution with 0.2 M glycine pH 2.5; Western blot with antibodies against Sei1 and Ldb16
T2 sequence: T1 sequence

binding [1]: no binding
Molecule: ATF6 (endogenous in MCF7 cells) (from UniProt P18850 1-670)

binding [2]: binds
Molecule: myc-tagged seipin, short form (seipin-S) (from UniProt Q96G97 1-398)

binding [3]: binds
B1: Ldb16 (protein, UniProt P25587 1-256)
chain: MFVVDWSVQLCMGVISPLFRALVQLPLSIFVWNGFQLVALPINIPLRLFLGTSLSRLVAQTSTLDFYVVLTLFQYFAVLCAFGSIIGLIFGFILGVFHSICGVPSVYISLEWKRWFAPIRTVLERASTSIVNIMRGQTIAPIPMPKPNPTHISKPNMKKFHDEPGADDMTITHDVNCYITPCQTPTNEKIQHYNNDSFNTTTTDDEPTDIWDRSDTYQNSFVTNETLMSLSNRAKLRRNASDADIVNIKILRRNSR

binding [3]: binds
B2: Sei1 (protein, UniProt Q06058 1-285)
chain: MKINVSRPLQFLQWSSYIVVAFLIQLLIILPLSILIYHDFYLRLLPADSSNVVPLNTFNILNGVQFGTKFFQSIKSIPVGTDLPQTIDNGLSQLIPMRDNMEYKLDLNLQLYCQSKTDHLNLDNLLIDVYRGPGPLLGAPGGSNSKDEKIFHTSRPIVCLALTDSMSPQEIEQLGPSRLDVYDEEWLNTIRIEDKISLESSYETISVFLKTEIAQRNLIIHPESGIKFRMNFEQGLRNLMLRKRFLSYIIGISIFHCIICVLFFITGCTAFIFVRKGQEKSKKHS
